Results are given in words; binding and its absence hold for the method and conditions named. Binding seen in cells or lysates may run through a third protein. Some binding calls cover weakened binding; strength is not graded here.
What was measured:
[1] = target: integrin β1 (human (endogenous in Huh7)) (UniProt P05556); experiment: proximity ligation; PLA for integrin β1 and TNS1 in transfected Huh7 cells (tdTomato constructs) in low-viscoelasticity matrix
[2] = target: integrin β1 (human (endogenous in Huh7)) (UniProt P05556); experiment: proximity ligation; PLA for integrin β1 and TNS1 in Huh7 cells transfected with empty vector, full-length TNS1-tdTomato or dd-TNS1-tdTomato, in high-viscoelasticity hydrogels; co-localisation of the PLA signal (green) with tdTomato (red)
[3] = target: integrin β1 (human (endogenous in Huh7)) (UniProt P05556); experiment: proximity ligation; Duolink PLA with anti-TNS1 and anti-integrin β1 primary antibodies in HCC (Huh7) cells encapsulated in low- versus high-viscoelasticity hydrogels; confocal microscopy, signal counted with ImageJ

Protein sequences, listed by entry. Tags and fused reporters are not part of them.
UniProt P05556: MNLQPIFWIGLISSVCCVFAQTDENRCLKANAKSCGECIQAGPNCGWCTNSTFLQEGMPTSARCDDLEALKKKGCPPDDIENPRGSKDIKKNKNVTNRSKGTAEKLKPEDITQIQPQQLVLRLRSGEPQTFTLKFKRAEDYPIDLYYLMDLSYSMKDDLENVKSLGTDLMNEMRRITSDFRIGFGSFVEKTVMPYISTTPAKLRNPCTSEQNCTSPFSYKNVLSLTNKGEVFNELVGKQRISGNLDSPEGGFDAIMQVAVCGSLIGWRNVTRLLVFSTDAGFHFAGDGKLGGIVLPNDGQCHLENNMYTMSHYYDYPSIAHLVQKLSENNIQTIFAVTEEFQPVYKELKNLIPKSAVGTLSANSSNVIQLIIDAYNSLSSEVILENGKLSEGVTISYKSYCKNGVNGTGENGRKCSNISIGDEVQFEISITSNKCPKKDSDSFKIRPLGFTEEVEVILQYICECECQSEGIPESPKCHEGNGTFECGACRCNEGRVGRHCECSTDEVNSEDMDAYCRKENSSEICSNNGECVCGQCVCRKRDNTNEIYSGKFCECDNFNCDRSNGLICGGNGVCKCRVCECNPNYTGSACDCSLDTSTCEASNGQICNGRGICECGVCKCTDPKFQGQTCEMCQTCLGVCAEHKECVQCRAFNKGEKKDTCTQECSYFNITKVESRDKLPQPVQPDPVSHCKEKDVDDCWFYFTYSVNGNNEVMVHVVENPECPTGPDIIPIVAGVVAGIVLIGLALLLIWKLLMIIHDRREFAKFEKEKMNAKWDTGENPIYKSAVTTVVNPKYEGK
UniProt Q9HBL0: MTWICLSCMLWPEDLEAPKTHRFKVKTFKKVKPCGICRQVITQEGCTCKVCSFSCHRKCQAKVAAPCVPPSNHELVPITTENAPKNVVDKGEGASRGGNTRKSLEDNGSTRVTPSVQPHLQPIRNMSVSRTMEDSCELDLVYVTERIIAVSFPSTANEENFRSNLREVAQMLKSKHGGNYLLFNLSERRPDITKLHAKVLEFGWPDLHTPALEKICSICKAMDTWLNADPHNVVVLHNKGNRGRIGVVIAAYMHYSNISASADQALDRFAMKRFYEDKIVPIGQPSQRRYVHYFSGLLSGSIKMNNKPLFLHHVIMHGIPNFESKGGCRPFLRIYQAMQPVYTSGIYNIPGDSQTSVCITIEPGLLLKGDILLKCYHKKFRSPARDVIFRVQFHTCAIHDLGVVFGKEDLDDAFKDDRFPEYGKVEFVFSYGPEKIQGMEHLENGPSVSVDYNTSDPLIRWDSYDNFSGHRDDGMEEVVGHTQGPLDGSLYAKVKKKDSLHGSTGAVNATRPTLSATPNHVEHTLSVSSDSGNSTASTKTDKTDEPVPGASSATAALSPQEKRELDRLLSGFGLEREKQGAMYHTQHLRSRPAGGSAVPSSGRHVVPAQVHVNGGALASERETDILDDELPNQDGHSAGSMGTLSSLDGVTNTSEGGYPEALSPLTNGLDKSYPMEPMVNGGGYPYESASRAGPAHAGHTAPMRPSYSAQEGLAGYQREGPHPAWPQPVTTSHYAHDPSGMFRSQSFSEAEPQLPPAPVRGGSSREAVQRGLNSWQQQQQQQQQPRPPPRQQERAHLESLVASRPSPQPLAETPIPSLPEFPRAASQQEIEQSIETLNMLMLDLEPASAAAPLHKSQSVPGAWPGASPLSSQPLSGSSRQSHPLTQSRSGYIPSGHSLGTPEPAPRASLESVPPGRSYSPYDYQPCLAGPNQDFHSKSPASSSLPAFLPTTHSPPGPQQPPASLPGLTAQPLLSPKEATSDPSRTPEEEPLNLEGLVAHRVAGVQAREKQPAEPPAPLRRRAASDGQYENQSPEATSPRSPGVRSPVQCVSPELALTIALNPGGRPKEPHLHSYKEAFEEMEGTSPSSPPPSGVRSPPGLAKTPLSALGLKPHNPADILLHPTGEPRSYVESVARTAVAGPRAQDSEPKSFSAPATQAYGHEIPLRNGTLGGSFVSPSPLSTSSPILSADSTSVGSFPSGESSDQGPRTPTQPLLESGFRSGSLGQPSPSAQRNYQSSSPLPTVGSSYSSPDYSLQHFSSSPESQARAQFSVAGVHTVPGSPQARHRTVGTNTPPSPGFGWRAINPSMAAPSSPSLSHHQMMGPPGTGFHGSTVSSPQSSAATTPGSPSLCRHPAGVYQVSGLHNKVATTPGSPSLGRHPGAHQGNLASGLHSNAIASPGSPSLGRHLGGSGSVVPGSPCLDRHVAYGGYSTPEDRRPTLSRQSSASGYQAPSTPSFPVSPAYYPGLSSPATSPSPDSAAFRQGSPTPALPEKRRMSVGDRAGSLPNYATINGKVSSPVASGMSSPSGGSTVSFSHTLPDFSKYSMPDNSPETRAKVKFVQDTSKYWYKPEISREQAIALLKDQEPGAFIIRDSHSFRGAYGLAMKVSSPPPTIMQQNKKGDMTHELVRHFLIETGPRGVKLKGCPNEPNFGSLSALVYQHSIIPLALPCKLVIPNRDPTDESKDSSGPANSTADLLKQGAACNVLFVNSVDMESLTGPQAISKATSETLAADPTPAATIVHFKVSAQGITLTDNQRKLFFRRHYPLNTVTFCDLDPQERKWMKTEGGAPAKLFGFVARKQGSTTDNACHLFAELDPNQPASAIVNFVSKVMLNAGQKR

Row | binding [2] | binding [3] | Substance | binding [1]
1 | binds |  | full-length TNS1 in a tdTomato-N1 vector (from UniProt Q9HBL0 1-1839) | no binding (condition: in low viscoelasticity matrix)
2 |  | binds | tensin 1 (TNS1) (from UniProt Q9HBL0 1-1839) | 
